Data as given in PubChem BioAssay AID1508588 (Peter MacCallum Cancer Centre, 2020)
Shown is one part, drawn at random, of about 18,000 reagents tested. Of all reagents, 790 (4.4%) are marked active. 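Calls rest on a combination of fold-change classes in drug and vehicle arms, not all shown here.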 A number with no mark means an inactive call. Reagents against one gene are numbered here. Reagent sequences are not shown.

Purpose: 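Which gene losses make BRAF-mutant melanoma cells more responsive to vemurafenib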 (primary screen)
Cells: human WM266.4 melanoma cells (BRAF V600 mutant)
Reagents: siRNA pool against human genes, 40 nM
Timing: 96 h from transfection to read-out
Treatment: vemurafenib 300 nM (about IC25), added 48 h after transfection, for 48 h; comparison arm got DMSO vehicle only
Measurement: 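Cell gain (DAPI nuclei at end minus before drug, mean of two replicates) and medium lactate by absorbance per cell, both as ratio to non-targeting siRNA, also grouped into fold-change classes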
Direction: cell gain with vemurafenib: higher = more cell gain than with non-targeting siRNA; lactate per cell with vemurafenib: higher = more lactate made per cell
Active means: 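a knock-down counts as enhancing when its fold-change classes with vehicle and with vemurafenib, taken together, show a stronger drug effect on cell gain or lactate per cell; exact class pairs not stated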
Meaning of the calls: active = enhances vemurafenib effect; inactive = no enhancement seen

no.	gene	reagent	cell gain with vemurafenib	lactate per cell with vemurafenib
1	RAF1 (GeneID 5894)	1	0.56 (active)	0.64
2	MESP1 (GeneID 55897)	1	0.99	0.73
3	RNF2 (GeneID 6045)	1	0.64	0.8
4	KCTD16 (GeneID 57528)	1	0.89	0.75
5	IL2RA (GeneID 3559)	1	0.55	0.45
6	ETV1 (GeneID 2115)	1	1.2	0.98
7	GLDN (GeneID 342035)	1	0.81	1.27
8	CHRDL1 (GeneID 91851)	1	0.38	1.06
9	HIC1 (GeneID 3090)	1	0.52	1.57
10	NAP1L3 (GeneID 4675)	1	0.63	0.62
11	BIK (GeneID 638)	1	0.59	0.6
12	ZBTB40 (GeneID 9923)	1	0.32	0.6
13	GCOM1 (GeneID 145781)	1	0.54	0.83
14	POMT1 (GeneID 10585)	1	0.79	1.1
15	OR51G2 (GeneID 81282)	1	0.79	1.07
16	FGF6 (GeneID 2251)	1	0.42	1.54
17	CORO2B (GeneID 10391)	1	0.61	0.6
18	SSU72 (GeneID 29101)	1	0.67	1.45
19	GCNT4 (GeneID 51301)	1	0.48	1
20	CD38 (GeneID 952)	1	1.24	0.64
21	APBA1 (GeneID 320)	1	0.79	1.18
22	SPATA46 (GeneID 284680)	1	0.93	0.74
23	TCEAL7 (GeneID 56849)	1	0.82	0.61
24	RBMX2 (GeneID 51634)	1	0.1	3.36
25	MAGEB2 (GeneID 4113)	1	0.72	1.12
26	AMY1C (GeneID 278)	1	0.92	0.72
27	SULT1E1 (GeneID 6783)	1	0.48	0.57
28	ANLN (GeneID 54443)	1	0.05	1.72
29	LARP4B (GeneID 23185)	1	0.57	0.47
30	USP43 (GeneID 124739)	1	-0.01	2.67
31	RFPL4B (GeneID 442247)	1	1.19	0.72
32	PACRGL (GeneID 133015)	1	0.6	0.7
33	TMEM200C (GeneID 645369)	1	1.02	1.13
34	LAD1 (GeneID 3898)	1	0.84	0.92
35	SV2B (GeneID 9899)	1	0.76	1.45
36	CABLES1 (GeneID 91768)	1	0.24	1.39
37	UBE2E2 (GeneID 7325)	1	1.21	0.55
38	PTPN20 (GeneID 26095)	1	0.79	0.17
39	PTPN20 (GeneID 26095)	2	0.61	0.34
40	APLP1 (GeneID 333)	1	0.86	0.95
41	AKIRIN2 (GeneID 55122)	1	0.27	1.36
42	BAZ1B (GeneID 9031)	1	0.84	1.12
43	UQCRQ (GeneID 27089)	1	0.29	2.33
44	NDUFAF7 (GeneID 55471)	1	0.84	1.04
45	WFDC2 (GeneID 10406)	1	1	1.18
46	TRPC3 (GeneID 7222)	1	0.45	0.56
47	RGS2 (GeneID 5997)	1	-0.07 (active)	-0.3
48	VPS16 (GeneID 64601)	1	0.51	0.66
49	TCEA1 (GeneID 6917)	1	0.65	0.57
50	SLC26A8 (GeneID 116369)	1	0.36	1.01
51	GPRC6A (GeneID 222545)	1	0.53	0.94
52	FIBCD1 (GeneID 84929)	1	0.24	0.95
53	DAPP1 (GeneID 27071)	1	0.81	1.46
54	UPK1A (GeneID 11045)	1	0.07	0.8

Next part, starting with the last 11 of the part before.
no.	gene	reagent	cell gain with vemurafenib	lactate per cell with vemurafenib
44	NDUFAF7 (GeneID 55471)	1	0.84	1.04
45	WFDC2 (GeneID 10406)	1	1	1.18
46	TRPC3 (GeneID 7222)	1	0.45	0.56
47	RGS2 (GeneID 5997)	1	-0.07 (active)	-0.3
48	VPS16 (GeneID 64601)	1	0.51	0.66
49	TCEA1 (GeneID 6917)	1	0.65	0.57
50	SLC26A8 (GeneID 116369)	1	0.36	1.01
51	GPRC6A (GeneID 222545)	1	0.53	0.94
52	FIBCD1 (GeneID 84929)	1	0.24	0.95
53	DAPP1 (GeneID 27071)	1	0.81	1.46
54	UPK1A (GeneID 11045)	1	0.07	0.8
55	PSMB5 (GeneID 5693)	1	0.29	1.4
56	ARMCX6 (GeneID 54470)	1	1.16	0.58
57	C2orf68 (GeneID 388969)	1	0.47	1.43
58	SOCS5 (GeneID 9655)	1	0.89	0.56
59	ABCA5 (GeneID 23461)	1	0.75	0.83
60	SEC22B (GeneID 9554)	1	1.09	0.96
61	TMEM116 (GeneID 89894)	1	0.28	1.67
62	HERC4 (GeneID 26091)	1	0.43	1.01
63	ELMOD1 (GeneID 55531)	1	0.5	1.05
64	ELMOD1 (GeneID 55531)	2	0.66	0.58
65	CARD9 (GeneID 64170)	1	0.5	0.98
66	CHUK (GeneID 1147)	1	0.93	0.82
67	SERHL2 (GeneID 253190)	1	0.66	0.8
68	GSPT2 (GeneID 23708)	1	0.55	1.51
69	CYSLTR2 (GeneID 57105)	1	0.39	0.9
70	TLR8 (GeneID 51311)	1	0.5	0.94
71	EDA (GeneID 1896)	1	0.85	1.16
72	DNMT1 (GeneID 1786)	1	0.56	1.66
73	PGS1 (GeneID 9489)	1	0.9	0.8
74	EPS8L3 (GeneID 79574)	1	0.22	1.58
75	UAP1L1 (GeneID 91373)	1	0.64	0.74
76	CXCL3 (GeneID 2921)	1	1.09	1.23
77	GFRA3 (GeneID 2676)	1	0.46	0.94
78	HOXB7 (GeneID 3217)	1	0.7	1.14
79	C16orf86 (GeneID 388284)	1	1.05	0.6
80	CLDN4 (GeneID 1364)	1	1.16	0.6
81	LRRC8A (GeneID 56262)	1	0.38	0.98
82	TSPAN5 (GeneID 10098)	1	0.21	1.1
83	PRCC (GeneID 5546)	1	0.87	1.11
84	LILRB1 (GeneID 10859)	1	0.43	0.93
